# Hit rate of the full screen: of about 310,000 compounds, about 17,000 (5.5%) were called active. This list was built around the results that the source calls inconclusive (neither active nor inactive); the mix of calls is not that of the screen. The call rests on the fitted dose curve; in most records, active means well fitted inhibition curve with a large enough effect; inconclusive means small, poorly fitted or top-dose-only effect, or effect the other way; inactive means no such curve, though single readings can be large or run the other way. Potencies of inconclusive entries are doubtful fits and often do not repeat.
# By UniProt entry, the sequences of proteins in these tests, tags left out. Where a name states a change or a piece, a line headed by the entry shows the natural chain unless it says otherwise.
# UniProt P51450: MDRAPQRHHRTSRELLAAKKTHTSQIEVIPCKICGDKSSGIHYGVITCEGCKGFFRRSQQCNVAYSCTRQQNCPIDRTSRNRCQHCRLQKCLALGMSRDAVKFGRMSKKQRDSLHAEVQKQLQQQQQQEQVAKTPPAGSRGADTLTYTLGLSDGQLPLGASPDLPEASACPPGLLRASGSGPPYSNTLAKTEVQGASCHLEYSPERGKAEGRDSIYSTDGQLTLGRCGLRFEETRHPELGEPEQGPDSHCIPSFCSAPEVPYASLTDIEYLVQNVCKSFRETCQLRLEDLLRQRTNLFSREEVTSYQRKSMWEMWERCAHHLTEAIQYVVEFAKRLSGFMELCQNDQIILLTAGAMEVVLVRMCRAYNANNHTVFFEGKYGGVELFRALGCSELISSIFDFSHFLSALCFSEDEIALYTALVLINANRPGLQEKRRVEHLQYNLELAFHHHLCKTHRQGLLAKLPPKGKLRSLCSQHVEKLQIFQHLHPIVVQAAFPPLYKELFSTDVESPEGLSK
# Target: Nuclear receptor ROR-gamma (Mus musculus) (UniProt P51450)
# Assay: qHTS for inhibitors of ROR gamma transcriptional activity; further: nearly all actives have a fitted effect of over 60% in size
# Details: Drosophila S2 Gal4-RORgamma UAS-luciferase reporter, 20 h; activity change, negative = inhibition: at 53.6 µM (top of the series)
# Procedure, shortened: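 Luminescence from a UAS-regulated Photinus luciferase reporter in stably transfected Drosophila Schneider cells is measured; decreased signal marks ROR gamma inhibition. Fusion expression is induced by 700 uM copper sulfate for 20 hr.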
# On the % scale 0 is the no-effect control and ±100 the full control effect; potency means the concentration at half of the fitted maximal effect.
Structure (SMILES),"activity change, negative = inhibition",Potency
Cc1nc(C)c(-c2ccc(SCc3cccc(F)c3)nn2)s1,inactive: 0.51%,–
COc1ccc(/C=C/C(=O)C(C(N)=O)=C2SCCS2)cc1,inactive: 7.67%,–
Cc1ccc(S(=O)(=O)N2CCN(S(=O)(=O)N3CCCCC3)CC2)cc1C,–,"inconclusive: 17.8 µM [inhibitor, single point]"
Cc1ccc(-c2noc(C3CCCN(C(=O)c4ccccc4Br)C3)n2)cc1 (stereo not given),–,"inconclusive: 14.1 µM [activator, single point]"
CCOC(=O)N(NC(=O)C(O)(c1ccccc1)c1ccccc1)c1ccccc1,inactive: -8.88%,–
O=c1[nH]c(N/N=C/c2ccccc2Br)nnc1-c1ccccc1,–,"inconclusive: 25.1 µM [inhibitor, single point]"
O=c1c2ccccc2nnn1Cc1nnc(-c2ccccc2Br)o1,–,"inconclusive: 20 µM [activator, single point]"
CCN1CCN(C(=O)Nc2cc(Cl)ccc2OC)CC1,inactive: -12.4%,–
C=CCn1c(=NC(=O)c2ccco2)sc2cc(C(=O)OC)ccc21,–,"inconclusive: 5.01 µM [activator, single point]"
CCCC(=O)Nc1ccc(Sc2ccc([N+](=O)[O-])cc2)cc1,–,"inconclusive: 22.4 µM [activator, single point]"
Nc1nc(Nc2ccccc2)nc2ccccc12,–,"inconclusive: 15.8 µM [inhibitor, single point]"
Cc1ccc(CCS(=O)(=O)c2ccc(C(C)(C)C)cc2)cn1,–,"inconclusive: 15.8 µM [activator, single point]"
COc1cccc(CNC(=O)c2nnn(CC(=O)Nc3ccc(C)c(C)c3)c2N)c1,–,"inconclusive: 31.6 µM [inhibitor, single point]"
CN(CCC#N)C(=S)NC(=O)c1ccc(S(=O)(=O)N2CCOCC2)cc1,–,active: 5.01 µM
COc1ccc(CNC(=O)C(c2cccs2)N(Cc2ccco2)C(=O)Cc2cccs2)cc1 (stereo not given),–,"inconclusive: 2.82 µM [inhibitor, single point]"
CCN(c1ccccc1)S(=O)(=O)c1ccc(Cl)c(NC(=O)CSc2nncn2C)c1,inactive: 25%,–
CCOc1ccc(-c2csc(Cn3c(CN4CCN(C)CC4)nc4ccccc4c3=O)n2)cc1,–,"inconclusive: 2.51 µM [activator, partial curve, poor fit]"
O=C(N/N=C1\CCCc2oc(C(=O)O)cc21)c1ccccc1,–,"inconclusive: 15.8 µM [inhibitor, single point]"
C=CCN1C(=O)/C(=c2\sc3nc(=O)c(Cc4ccc(OC)c(OC)c4)nn3c2=O)c2ccccc21,–,"inconclusive: 14.1 µM [inhibitor, single point]"
O=C1C([N+](=O)[O-])=C(O)c2cccc3cccc1c23,–,"inconclusive: 15.8 µM [inhibitor, single point]"
O=C(O)c1cccc(N/N=C/c2cc(Br)cc(Br)c2O)c1,–,"inconclusive: 3.16 µM [activator, full curve]"
N/C(=N\OC(=O)/C=C/c1ccccc1Cl)c1cccnc1,inactive: -30.3%,–
COc1cc(Cl)c(C)cc1NC(=O)CNC(=O)Cn1cnc2ccccc2c1=O,inactive: 27.2%,–
CCN(CC)C(=O)Cn1cc(C(=O)C(=O)N2CCN(c3ccc([N+](=O)[O-])cc3)CC2)c2ccccc21,–,"inconclusive: 14.1 µM [activator, single point]"
COc1ccc(CSCC(=O)Nc2ccccc2)cc1[N+](=O)[O-],–,"inconclusive: 12.6 µM [activator, single point]"

# Given as tab-separated lines: part of the list above
Structure (SMILES)	activity change, negative = inhibition	Potency
Cc1ccc(-c2noc(C3CCCN(C(=O)c4ccccc4Br)C3)n2)cc1 (stereo not given)	–	inconclusive: 14.1 µM [activator, single point]
Nc1nc(Nc2ccccc2)nc2ccccc12	–	inconclusive: 15.8 µM [inhibitor, single point]
CCOc1ccc(-c2csc(Cn3c(CN4CCN(C)CC4)nc4ccccc4c3=O)n2)cc1	–	inconclusive: 2.51 µM [activator, partial curve, poor fit]

# Further results follow.

Structure (SMILES),"activity change, negative = inhibition",Potency
FC(F)Oc1ccc(NC(=S)NCc2ccco2)cc1Cl,–,"inconclusive: 11.2 µM [inhibitor, single point]"
O=C(NC(=S)NCC1CCCO1)c1ccc([N+](=O)[O-])cc1 (stereo not given),–,active: 12.6 µM
Cn1c(N)c(C(=O)NCc2ccccc2)sc1=S,–,"inconclusive: 14.1 µM [inhibitor, single point]"
CCCCn1nc(NC(=O)c2cccs2)c2cc3cc(OC)ccc3nc21,–,"inconclusive: 2.82 µM [activator, single point]"
CCCn1nc(Oc2nc(NC(C)C)nc(N(C)C)n2)ccc1=O,–,"inconclusive: 12.6 µM [activator, single point]"
O=C(Nc1ccc(N2CCN(C(=O)c3ccccc3)CC2)c(Cl)c1)c1ccco1,inactive: -68.1%,–
COc1ccccc1NC(CC(=O)c1ccccc1)C(=O)OCC(=O)c1ccc(C)c(C)c1 (stereo not given),inactive: 3.42%,–
COc1ccc(O)c(/C=N/Nc2nc3ccccc3[nH]2)c1,–,"inconclusive: 35.5 µM [inhibitor, single point]"
COc1ccc(Cn2c(O)c(/C=N/NC(=O)c3cccnc3)c3ccccc3c2=O)cc1,–,active: 6.31 µM
CC1=CC2=NC(=O)/C(=C/c3cccn3Cc3ccccc3)C(=N)N2O1,–,active: 12.6 µM
O=C(c1cccc(Cl)c1)C1CCCN(C(=O)c2ccoc2)C1 (stereo not given),–,"inconclusive: 35.5 µM [activator, single point]"
C=CCSC(=S)NC1CCS(=O)(=O)C1 (stereo not given),–,"inconclusive: 35.5 µM [inhibitor, single point]"
CCOC(=O)C1=NN(c2ccccc2)C2=NC(C)=C(C(=O)OC)C(c3ccc(C)cc3)N12 (stereo not given),inactive: 13.7%,–
CCOc1ccc(CCNC(=O)CCC(=O)N2CCOc3ccccc32)cc1OCC,inactive: 17.7%,–
COc1ccc2c(c1)CC/C(=C\c1ccc(OC)c(Cn3nc(C)cc3C)c1)C2=O,–,"inconclusive: 17.8 µM [inhibitor, single point]"
O=C(NNc1nc2cc3c(cc2s1)OCO3)c1ccccc1,–,active: 5.01 µM
COc1ccc(CNC(=S)N/N=C(/C)c2ccccc2)cc1,–,active: 8.91 µM
N#Cc1cc(Sc2ccccn2)c([N+](=O)[O-])cc1C#N,inactive: -19.3%,–
CC(C)(C)c1ccc(C(=O)NCCn2c(N)c(C#N)c3nc4ccccc4nc32)cc1,–,"inconclusive: 17.8 µM [activator, single point]"
O=C(CCCOc1ccccc1)Nc1cccnc1,inactive: 41.4%,–
O=C(CCN1CCC(c2ccccc2)C1)c1cccs1 (stereo not given),–,"inconclusive: 31.6 µM [inhibitor, single point]"
FC(F)(F)c1ccc(-c2nnc(-c3cccnc3)o2)cc1,–,"inconclusive: 11.2 µM [activator, single point]"
O=C(CCC(=O)N(CC(=O)NC1CCCC1)Cc1cccs1)Nc1nccs1,inactive: -2.24%,–
CC(C)(C)C(=O)Cn1ncc(Cl)c(Cl)c1=O,inactive: -109%,–
CC(=O)c1cccc(NC(=S)N2c3ccccc3CC2C)c1 (stereo not given),–,"inconclusive: 35.5 µM [inhibitor, single point]"

Structure (SMILES),"activity change, negative = inhibition",Potency
CCOC(=O)C1CCN(C(=O)CCc2ccc(S(=O)(=O)NCC(C)C)cc2)CC1,inactive: 2.41%,–
CCN(CC)S(=O)(=O)c1ccc(OC)c(NC(=S)Nc2cccc(C)c2C)c1,–,"inconclusive: 35.5 µM [inhibitor, single point]"
O=[N+]([O-])c1cccc(-c2ccc(/C=N/NC(=S)Nc3ccccc3)o2)c1,–,active: 0.0891 µM
O=C1NC(=S)N/C1=C/c1cccnc1,–,active: 12.6 µM
CCCCCCCNS(=O)(=O)c1cccc2c(Cl)cccc12,–,"inconclusive: 25.1 µM [activator, partial curve]"
COc1ccccc1CCc1nnc(CCC(=O)NC(C)Cc2cccc(C)n2)o1 (stereo not given),inactive: 6.65%,–
COc1ccccc1N(O)C1CC(=O)N(c2ccc(Br)cc2)C1=O (stereo not given),inactive: -35%,–
CCCN(CCC)S(=O)(=O)c1ccc(NC(=O)c2cc(C(=O)OC)cc([N+](=O)[O-])c2)cc1,inactive: 10.4%,–
Cc1nn(C)c(C)c1CN(Cc1nc(CCC(C)C)no1)C(C)C,–,active: 7.08 µM
CCC(=O)NC(c1ccc([N+](=O)[O-])cc1)c1c(O)ccc2ccccc12 (stereo not given),–,"inconclusive: 5.62 µM [activator, single point]"
NS(=O)(=O)c1cccc(C(=O)NC2CCSc3ccccc32)c1 (stereo not given),–,"inconclusive: 3.55 µM [inhibitor, single point]"
C(=N\Nc1nc2ccccc2[nH]1)/c1cccs1,–,active: 3.16 µM
CSc1ccc(-c2nc(CN3CCCCC3c3cccnc3)c(C)o2)cc1 (stereo not given),–,"inconclusive: 15.8 µM [inhibitor, single point]"
O=C(COC(=O)c1n[nH]c2ccccc12)NC(=O)NCc1ccco1,–,"inconclusive: 14.1 µM [activator, single point]"
CCOC(=O)c1c(NC(=S)Nc2ccccc2)sc2c1CCCCC2,–,active: 2.51 µM
CC(C)CC(=O)NC(=S)Nc1ccc(S(=O)(=O)NC(C)(C)C)cc1,–,"inconclusive: 17.8 µM [inhibitor, single point]"
CC(=O)c1ccc(N2CCN(C(=O)c3cccs3)CC2)c(F)c1,–,"inconclusive: 15.8 µM [activator, partial curve]"
CCOc1ccc2nc(SCc3ccc(F)cc3)sc2c1,–,"inconclusive: 11.2 µM [activator, partial curve]"
Cc1cc(C(=O)N/N=C/C=C/c2ccc3c(c2)OCO3)n[nH]1,–,"inconclusive: 35.5 µM [inhibitor, single point]"
O=C(N/N=C/c1cccc(F)c1)c1csc2c1CCCC2,–,"inconclusive: 11.2 µM [inhibitor, single point]"
COc1ccc(-c2c(C#Cc3ccsc3)c3ccccc3n2C)cc1,–,"inconclusive: 28.2 µM [activator, single point]"
CCN(CC)NC(=S)Nc1ccccc1,–,active: 3.16 µM
CCC(=O)NC(=S)Nc1ccc(NC(=S)NC(=O)c2ccc(C)cc2)cc1,–,"inconclusive: 1.12 µM [inhibitor, full curve]"
Cc1ccc(SCCNC(=S)Nc2ccc(C)c(C)c2)cc1,–,active: 4.47 µM
CC(C)Cc1ccc(C(C)C(N)=NCCc2ccccc2)cc1 (stereo not given),–,"inconclusive: 35.5 µM [inhibitor, single point]"

# Some of these compounds in order of count of non-hydrogen atoms, rising.
Structure (SMILES),"activity change, negative = inhibition",Potency
C(=N\Nc1nc2ccccc2[nH]1)/c1cccs1,–,active: 3.16 µM
CC(C)CC(=O)NC(=S)Nc1ccc(S(=O)(=O)NC(C)(C)C)cc1,–,"inconclusive: 17.8 µM [inhibitor, single point]"
CCOC(=O)c1c(NC(=S)Nc2ccccc2)sc2c1CCCCC2,–,active: 2.51 µM
